This test addresses T1, NNMT-GFP, full length (human) (UniProt P40261).
T1 sequence: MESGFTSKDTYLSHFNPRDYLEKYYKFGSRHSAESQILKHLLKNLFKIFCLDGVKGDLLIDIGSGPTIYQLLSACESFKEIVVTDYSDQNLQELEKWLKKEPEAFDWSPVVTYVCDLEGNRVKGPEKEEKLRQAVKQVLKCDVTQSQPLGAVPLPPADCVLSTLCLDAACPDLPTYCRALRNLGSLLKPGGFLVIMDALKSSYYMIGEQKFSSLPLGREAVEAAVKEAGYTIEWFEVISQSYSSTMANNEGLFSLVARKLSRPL
Kind of test: affinity purification with mass spectrometry; HEK293T cells overexpressing NNMT-GFP, IP lysis buffer, GFP antibody, SDS-PAGE bands digested, LC-MS/MS.

Protein sequences, listed by entry. Tags and fused reporters are not part of them.
UniProt Q14258: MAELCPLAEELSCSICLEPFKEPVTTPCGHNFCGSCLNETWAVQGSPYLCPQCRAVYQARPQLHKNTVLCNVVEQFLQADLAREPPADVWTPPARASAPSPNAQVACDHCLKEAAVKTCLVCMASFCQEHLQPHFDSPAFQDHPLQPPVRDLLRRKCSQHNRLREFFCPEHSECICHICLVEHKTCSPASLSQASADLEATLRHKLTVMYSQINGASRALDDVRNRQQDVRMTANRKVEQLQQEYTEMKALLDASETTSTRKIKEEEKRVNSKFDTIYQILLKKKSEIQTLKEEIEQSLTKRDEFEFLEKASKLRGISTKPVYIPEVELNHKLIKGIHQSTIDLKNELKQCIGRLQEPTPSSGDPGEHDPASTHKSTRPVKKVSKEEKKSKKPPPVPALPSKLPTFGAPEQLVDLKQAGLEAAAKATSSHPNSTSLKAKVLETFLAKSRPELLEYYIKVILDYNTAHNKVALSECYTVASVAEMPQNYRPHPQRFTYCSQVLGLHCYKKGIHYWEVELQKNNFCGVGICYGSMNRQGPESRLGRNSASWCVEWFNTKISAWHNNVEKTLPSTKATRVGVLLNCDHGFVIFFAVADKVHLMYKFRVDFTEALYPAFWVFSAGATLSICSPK

Drawing on paper PMC11948025, this text covers binding for two molecules.

Results are given in words; binding and its absence hold for the method and conditions named. Binding seen in cells or lysates may run through a third protein. A yes stands for co-enrichment or nearness to the bait. Other partners may have been found. Where a sequence is shown, tags or fusion partners need not be part of it.

For “tripartite-motif protein 25 (TRIM25), endogenous (from UniProt Q14258 1-630) (enzyme)”, the binding result is “binds”.

B1: tripartite-motif protein 56 (TRIM56), endogenous (enzyme, UniProt Q9BRZ2 1-755)
chain: MVSHGSSPSLLEALSSDFLACKICLEQLRAPKTLPCLHTYCQDCLAQLADGGRVRCPECRETVPVPPEGVASFKTNFFVNGLLDLVKARACGDLRAGKPACALCPLVGGTSTGGPATARCLDCADDLCQACADGHRCTRQTHTHRVVDLVGYRAGWYDEEARERQAAQCPQHPGEALRFLCQPCSQLLCRECRLDPHLDHPCLPLAEAVRARRPGLEGLLAGVDNNLVELEAARRVEKEALARLREQAARVGTQVEEAAEGVLRALLAQKQEVLGQLRAHVEAAEEAARERLAELEGREQVARAAAAFARRVLSLGREAEILSLEGAIAQRLRQLQGCPWAPGPAPCLLPQLELHPGLLDKNCHLLRLSFEEQQPQKDGGKDGAGTQGGEESQSRREDEPKTERQGGVQPQAGDGAQTPKEEKAQTTREEGAQTLEEDRAQTPHEDGGPQPHRGGRPNKKKKFKGRLKSISREPSPALGPNLDGSGLLPRPIFYCSFPTRMPGDKRSPRITGLCPFGPREILVADEQNRALKRFSLNGDYKGTVPVPEGCSPCSVAALQSAVAFSASARLYLINPNGEVQWRRALSLSQASHAVAALPSGDRVAVSVAGHVEVYNMEGSLATRFIPGGKASRGLRALVFLTTSPQGHFVGSDWQQNSVVICDGLGQVVGEYKGPGLHGCQPGSVSVDKKGYIFLTLREVNKVVILDPKGSLLGDFLTAYHGLEKPRVTTMVDGRYLVVSLSNGTIHIFRVRSPDS
For B1, the binding result was “binds”.
